# Results as given in the supplement of paper PMC10032668.
# The chains behind the UniProt entries cited, without tags or fusion partners.
# CLPX, O76031, UniProt O76031, whole entry: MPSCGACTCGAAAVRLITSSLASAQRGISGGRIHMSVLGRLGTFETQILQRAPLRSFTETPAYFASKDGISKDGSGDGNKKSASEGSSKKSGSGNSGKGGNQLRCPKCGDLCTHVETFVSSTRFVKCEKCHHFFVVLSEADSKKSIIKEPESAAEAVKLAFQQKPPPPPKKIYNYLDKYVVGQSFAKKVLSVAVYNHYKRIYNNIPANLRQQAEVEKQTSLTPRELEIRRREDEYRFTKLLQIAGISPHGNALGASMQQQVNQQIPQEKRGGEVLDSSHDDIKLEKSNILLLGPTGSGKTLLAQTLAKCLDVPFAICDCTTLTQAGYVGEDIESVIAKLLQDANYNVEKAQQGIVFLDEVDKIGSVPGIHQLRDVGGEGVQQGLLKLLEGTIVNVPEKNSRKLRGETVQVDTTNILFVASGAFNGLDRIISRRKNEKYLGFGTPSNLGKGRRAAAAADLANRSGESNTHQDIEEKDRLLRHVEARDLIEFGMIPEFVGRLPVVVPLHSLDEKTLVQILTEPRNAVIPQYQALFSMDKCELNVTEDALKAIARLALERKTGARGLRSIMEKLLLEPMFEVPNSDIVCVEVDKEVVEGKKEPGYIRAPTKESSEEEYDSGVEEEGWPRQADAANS
# DMD, P11532, UniProt P11532, whole entry: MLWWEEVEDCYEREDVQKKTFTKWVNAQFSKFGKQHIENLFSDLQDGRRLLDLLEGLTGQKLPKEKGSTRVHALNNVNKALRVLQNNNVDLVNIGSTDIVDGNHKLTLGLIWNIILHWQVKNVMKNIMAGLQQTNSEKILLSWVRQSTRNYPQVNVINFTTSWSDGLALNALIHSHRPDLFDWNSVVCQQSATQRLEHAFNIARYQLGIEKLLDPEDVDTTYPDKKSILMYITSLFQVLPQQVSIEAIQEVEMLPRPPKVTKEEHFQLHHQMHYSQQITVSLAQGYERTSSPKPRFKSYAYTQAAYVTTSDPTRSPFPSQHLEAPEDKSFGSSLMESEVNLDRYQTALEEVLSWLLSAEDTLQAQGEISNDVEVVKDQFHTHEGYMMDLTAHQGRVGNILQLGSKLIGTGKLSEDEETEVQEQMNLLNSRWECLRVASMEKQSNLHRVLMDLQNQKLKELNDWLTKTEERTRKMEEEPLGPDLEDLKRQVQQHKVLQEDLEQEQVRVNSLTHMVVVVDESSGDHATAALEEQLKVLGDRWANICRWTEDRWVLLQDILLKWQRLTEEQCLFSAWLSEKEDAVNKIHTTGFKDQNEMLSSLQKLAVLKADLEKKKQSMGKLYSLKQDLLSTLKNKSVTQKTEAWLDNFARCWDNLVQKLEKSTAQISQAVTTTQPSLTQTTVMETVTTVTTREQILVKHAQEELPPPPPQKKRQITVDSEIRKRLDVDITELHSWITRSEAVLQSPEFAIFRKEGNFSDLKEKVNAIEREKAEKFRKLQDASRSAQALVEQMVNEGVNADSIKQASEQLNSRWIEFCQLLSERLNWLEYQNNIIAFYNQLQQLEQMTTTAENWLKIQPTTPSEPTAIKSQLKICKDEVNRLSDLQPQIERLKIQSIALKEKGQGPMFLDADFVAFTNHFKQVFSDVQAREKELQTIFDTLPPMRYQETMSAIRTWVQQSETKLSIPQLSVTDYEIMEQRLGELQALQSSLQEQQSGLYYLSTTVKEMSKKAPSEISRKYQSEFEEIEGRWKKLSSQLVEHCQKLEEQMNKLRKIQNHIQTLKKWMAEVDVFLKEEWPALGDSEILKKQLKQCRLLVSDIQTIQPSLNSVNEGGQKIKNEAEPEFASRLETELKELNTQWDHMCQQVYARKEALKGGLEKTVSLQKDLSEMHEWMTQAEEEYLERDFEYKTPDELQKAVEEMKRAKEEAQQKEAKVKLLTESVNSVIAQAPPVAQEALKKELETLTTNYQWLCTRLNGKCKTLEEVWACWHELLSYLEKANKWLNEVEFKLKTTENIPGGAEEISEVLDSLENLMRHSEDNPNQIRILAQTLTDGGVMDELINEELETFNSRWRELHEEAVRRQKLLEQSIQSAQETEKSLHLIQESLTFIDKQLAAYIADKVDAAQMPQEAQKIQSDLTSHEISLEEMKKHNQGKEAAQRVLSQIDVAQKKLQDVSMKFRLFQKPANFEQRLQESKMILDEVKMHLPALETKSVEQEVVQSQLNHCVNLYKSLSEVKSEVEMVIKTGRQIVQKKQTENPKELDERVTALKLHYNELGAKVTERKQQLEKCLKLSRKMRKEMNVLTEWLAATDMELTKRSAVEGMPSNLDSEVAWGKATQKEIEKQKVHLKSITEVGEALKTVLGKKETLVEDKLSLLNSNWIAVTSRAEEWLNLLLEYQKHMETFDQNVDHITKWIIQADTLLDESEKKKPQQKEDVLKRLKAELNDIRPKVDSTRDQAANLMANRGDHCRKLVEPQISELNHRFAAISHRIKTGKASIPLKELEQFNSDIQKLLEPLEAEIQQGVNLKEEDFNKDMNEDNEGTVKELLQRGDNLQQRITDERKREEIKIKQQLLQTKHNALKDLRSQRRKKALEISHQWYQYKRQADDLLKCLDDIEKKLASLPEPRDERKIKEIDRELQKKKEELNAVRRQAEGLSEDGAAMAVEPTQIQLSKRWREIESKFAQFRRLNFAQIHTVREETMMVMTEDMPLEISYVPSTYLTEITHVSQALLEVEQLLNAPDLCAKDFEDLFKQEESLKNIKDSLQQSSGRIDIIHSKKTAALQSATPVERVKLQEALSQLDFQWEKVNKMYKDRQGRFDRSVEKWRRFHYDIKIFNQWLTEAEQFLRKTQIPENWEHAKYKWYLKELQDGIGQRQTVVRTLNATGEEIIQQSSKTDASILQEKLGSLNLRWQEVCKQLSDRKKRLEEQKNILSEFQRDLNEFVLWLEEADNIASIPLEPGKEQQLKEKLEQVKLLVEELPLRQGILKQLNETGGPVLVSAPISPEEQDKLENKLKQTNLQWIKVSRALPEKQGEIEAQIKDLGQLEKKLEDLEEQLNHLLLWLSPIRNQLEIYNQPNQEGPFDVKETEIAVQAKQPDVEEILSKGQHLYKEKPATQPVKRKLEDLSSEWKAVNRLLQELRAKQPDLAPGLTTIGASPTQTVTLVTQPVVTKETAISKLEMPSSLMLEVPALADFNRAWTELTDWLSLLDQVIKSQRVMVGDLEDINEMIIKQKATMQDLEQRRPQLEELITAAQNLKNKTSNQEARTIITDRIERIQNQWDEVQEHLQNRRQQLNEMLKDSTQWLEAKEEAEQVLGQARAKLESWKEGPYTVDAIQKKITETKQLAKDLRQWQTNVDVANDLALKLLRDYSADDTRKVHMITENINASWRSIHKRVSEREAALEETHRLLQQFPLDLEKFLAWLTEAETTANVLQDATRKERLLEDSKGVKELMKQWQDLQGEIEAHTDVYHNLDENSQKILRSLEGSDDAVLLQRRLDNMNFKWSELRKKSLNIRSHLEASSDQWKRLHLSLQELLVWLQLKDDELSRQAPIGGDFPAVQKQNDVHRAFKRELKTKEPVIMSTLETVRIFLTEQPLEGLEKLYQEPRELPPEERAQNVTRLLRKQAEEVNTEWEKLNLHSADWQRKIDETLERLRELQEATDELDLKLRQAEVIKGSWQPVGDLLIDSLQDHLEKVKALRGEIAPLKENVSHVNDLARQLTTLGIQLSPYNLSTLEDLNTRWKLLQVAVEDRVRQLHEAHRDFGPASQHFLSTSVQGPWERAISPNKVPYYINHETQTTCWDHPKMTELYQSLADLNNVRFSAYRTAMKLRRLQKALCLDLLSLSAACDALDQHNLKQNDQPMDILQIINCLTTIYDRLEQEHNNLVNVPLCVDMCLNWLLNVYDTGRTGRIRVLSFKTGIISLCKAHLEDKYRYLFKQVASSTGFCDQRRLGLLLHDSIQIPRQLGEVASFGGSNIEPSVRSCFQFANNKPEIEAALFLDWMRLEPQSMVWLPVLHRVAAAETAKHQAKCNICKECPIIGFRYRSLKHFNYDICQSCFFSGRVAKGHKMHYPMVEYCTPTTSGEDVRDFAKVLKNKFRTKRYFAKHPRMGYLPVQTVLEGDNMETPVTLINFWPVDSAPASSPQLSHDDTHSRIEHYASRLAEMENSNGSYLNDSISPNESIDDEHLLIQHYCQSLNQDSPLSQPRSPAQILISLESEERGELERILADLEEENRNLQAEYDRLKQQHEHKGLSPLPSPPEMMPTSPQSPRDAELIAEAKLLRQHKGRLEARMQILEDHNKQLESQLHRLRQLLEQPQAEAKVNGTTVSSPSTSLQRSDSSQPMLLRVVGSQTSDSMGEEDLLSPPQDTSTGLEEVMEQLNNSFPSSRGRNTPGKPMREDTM
# NUP153, P49790, UniProt P49790, whole entry: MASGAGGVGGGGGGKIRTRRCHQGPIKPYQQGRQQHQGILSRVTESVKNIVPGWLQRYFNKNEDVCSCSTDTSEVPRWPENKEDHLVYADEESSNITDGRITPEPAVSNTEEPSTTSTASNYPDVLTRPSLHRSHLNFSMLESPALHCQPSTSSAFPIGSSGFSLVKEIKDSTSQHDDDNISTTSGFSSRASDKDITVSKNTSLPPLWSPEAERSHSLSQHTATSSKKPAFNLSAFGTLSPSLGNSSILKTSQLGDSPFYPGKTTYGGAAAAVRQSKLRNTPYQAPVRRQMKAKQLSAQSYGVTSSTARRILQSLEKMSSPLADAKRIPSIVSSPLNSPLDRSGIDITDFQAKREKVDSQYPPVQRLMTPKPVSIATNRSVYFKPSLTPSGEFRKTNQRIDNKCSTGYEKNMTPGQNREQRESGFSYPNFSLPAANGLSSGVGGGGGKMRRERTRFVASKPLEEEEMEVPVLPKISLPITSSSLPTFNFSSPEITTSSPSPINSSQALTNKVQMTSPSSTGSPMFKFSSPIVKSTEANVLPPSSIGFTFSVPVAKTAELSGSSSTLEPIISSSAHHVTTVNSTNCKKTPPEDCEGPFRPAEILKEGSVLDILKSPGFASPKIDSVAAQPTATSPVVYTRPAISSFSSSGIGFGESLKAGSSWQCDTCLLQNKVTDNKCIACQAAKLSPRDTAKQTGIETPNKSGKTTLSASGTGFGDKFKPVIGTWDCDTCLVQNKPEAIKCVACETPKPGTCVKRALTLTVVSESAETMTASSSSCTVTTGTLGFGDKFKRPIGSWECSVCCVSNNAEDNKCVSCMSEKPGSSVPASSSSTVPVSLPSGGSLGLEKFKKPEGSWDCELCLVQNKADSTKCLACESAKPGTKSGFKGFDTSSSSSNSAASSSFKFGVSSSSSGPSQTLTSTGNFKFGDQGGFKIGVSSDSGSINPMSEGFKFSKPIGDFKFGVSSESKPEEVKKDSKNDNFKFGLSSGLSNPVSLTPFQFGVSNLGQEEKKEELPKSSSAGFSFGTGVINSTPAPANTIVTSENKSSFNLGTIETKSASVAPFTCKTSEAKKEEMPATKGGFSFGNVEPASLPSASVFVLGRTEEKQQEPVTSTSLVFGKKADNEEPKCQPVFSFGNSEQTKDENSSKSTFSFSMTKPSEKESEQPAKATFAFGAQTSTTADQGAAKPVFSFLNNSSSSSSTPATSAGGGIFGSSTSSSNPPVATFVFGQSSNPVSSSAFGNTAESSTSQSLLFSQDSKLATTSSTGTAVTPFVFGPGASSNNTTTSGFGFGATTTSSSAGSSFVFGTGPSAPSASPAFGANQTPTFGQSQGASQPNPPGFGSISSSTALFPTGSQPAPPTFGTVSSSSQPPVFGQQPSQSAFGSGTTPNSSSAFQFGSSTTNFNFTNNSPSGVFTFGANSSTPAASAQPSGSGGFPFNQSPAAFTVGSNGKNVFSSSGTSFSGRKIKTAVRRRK
# SRPK1, Q96SB4, UniProt Q96SB4, whole entry: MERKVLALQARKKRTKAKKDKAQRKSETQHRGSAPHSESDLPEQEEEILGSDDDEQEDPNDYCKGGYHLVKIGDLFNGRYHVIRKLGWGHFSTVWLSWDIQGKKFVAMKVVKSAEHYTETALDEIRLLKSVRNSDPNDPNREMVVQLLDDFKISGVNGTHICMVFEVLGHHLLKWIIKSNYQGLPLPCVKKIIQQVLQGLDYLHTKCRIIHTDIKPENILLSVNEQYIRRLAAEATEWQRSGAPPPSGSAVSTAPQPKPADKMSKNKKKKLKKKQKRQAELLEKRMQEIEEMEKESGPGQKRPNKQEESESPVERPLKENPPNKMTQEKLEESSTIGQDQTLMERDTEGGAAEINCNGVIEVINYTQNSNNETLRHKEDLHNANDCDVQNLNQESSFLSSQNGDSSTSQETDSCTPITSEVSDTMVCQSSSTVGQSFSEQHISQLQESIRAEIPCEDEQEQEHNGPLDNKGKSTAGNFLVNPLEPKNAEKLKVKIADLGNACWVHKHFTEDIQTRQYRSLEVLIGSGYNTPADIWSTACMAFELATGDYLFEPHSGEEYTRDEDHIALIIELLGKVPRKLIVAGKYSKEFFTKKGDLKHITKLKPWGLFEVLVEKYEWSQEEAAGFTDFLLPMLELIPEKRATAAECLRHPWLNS
# The other results are listed elsewhere or left out. Only hits are listed; about a third recur on repeated control peptides.
# Tests used:
# Test in all cases: PRISMA enrichment of interactor (LFQ) in peptide spot vs all other peptide spots (log2 fold change); higher = stronger / more specific binding of the interactor to the peptide
# [1] = biological target: AK4, P27144
# Description: (§1)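 PRISMA: 221 full-length sORF-encoded peptides (3-15 aa), plus SOS1/GLUT1 control peptides, were spot-synthesized on cellulose membranes in triplicate. Membranes were incubated with HEK293T lysate, and bound proteins were identified by LC-MS/MS with LFQ. Enrichment is the log2 fold change versus all other peptide spots; only significant interactors are listed (cutoff c=6, x0=2.8).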
# [2] = biological target: CHD8, Q9HCK8
# Description: as §1
# [3] = biological target: CLPX, O76031
# Description: as §1
# [4] = biological target: COG3, Q96JB2
# Description: as §1
# [5] = biological target: DDX5, P17844
# Description: as §1
# [6] = biological target: DDX50, Q9BQ39
# Description: as §1
# [7] = biological target: DMD, P11532
# Description: as §1
# [8] = biological target: DUSP3, P51452
# Description: as §1
# [9] = biological target: EHD4, Q9H223
# Description: as §1
# [10] = biological target: IARS2, Q9NSE4
# Description: as §1
# [11] = biological target: MEMO1, Q9Y316
# Description: as §1
# [12] = biological target: MRPL18, Q9H0U6
# Description: as §1
# [13] = biological target: MRPS10, P82664
# Description: as §1
# [14] = biological target: MSI1, O43347
# Description: as §1
# [15] = biological target: NAMPT, P43490
# Description: as §1
# [16] = biological target: NCKIPSD, Q9NZQ3
# Description: as §1
# [17] = biological target: NUBP2, Q9Y5Y2
# Description: as §1
# [18] = biological target: NUP153, P49790
# Description: as §1
# [19] = biological target: OSTC, Q9NRP0
# Description: as §1
# [20] = biological target: PICALM, Q13492
# Description: as §1
# [21] = biological target: PRMT3, O60678
# Description: as §1
# [22] = biological target: PUM1, Q14671
# Description: as §1
# [23] = biological target: QRICH1, Q2TAL8
# Description: as §1
# [24] = biological target: RELCH, Q9P260
# Description: as §1
# [25] = biological target: RPF2, Q9H7B2
# Description: as §1
# [26] = biological target: SCPEP1, Q9HB40
# Description: as §1
# [27] = biological target: SRPK1, Q96SB4
# Description: as §1
# [28] = biological target: TFB1M, Q8WVM0
# Description: as §1
# [29] = biological target: UBAP2L, Q14157
# Description: as §1
# [30] = biological target: UBR5, O95071
# Description: as §1
# [31] = biological target: UMPS, P11172
# Description: as §1
# [32] = biological target: SNW1, Q13573
# Description: as §1
# [33] = biological target: SPAG5, Q96R06
# Description: as §1
# [34] = biological target: TAB1, Q15750
# Description: as §1
# [35] = biological target: TAB2, Q9NYJ8
# Description: as §1
# [36] = biological target: TBL1XR1, Q9BZK7
# Description: as §1
# [37] = biological target: TOX4, O94842
# Description: as §1
# [38] = biological target: TPX2, Q9ULW0
# Description: as §1
# [39] = biological target: UBAP2, Q5T6F2
# Description: as §1
# [40] = biological target: UBE2S, Q16763
# Description: as §1
# [41] = biological target: UBN2, Q6ZU65
# Description: as §1
# [42] = biological target: UBXN1, Q04323
# Description: as §1
# [43] = biological target: UFD1, Q92890
# Description: as §1
# [44] = biological target: UQCRFS1, P47985
# Description: as §1
# [45] = biological target: UTP11, Q9Y3A2
# Description: as §1
# [46] = biological target: UTP14A, Q9BVJ6
# Description: as §1
# [47] = biological target: WDR82, Q6UXN9
# Description: as §1
# [48] = biological target: WTAP, Q15007
# Description: as §1
# [49] = biological target: XRN1, Q8IZH2
# Description: as §1
# [50] = biological target: ZC3H11A, O75152
# Description: as §1
# [51] = biological target: ZNF281, Q9Y2X9
# Description: as §1
# [52] = biological target: ZNF638, Q14966
# Description: as §1
# [53] = biological target: AGL, P35573
# Description: as §1
# [54] = biological target: SLC39A7, Q92504
# Description: as §1
binder,measurement,setting,value
MHVILTQWLLLTNR [PPARD],PRISMA enrichment of interactor (log2),[1],5.59
same,PRISMA enrichment of interactor (log2),[2],6
same,PRISMA enrichment of interactor (log2),[3],5.32
same,PRISMA enrichment of interactor (log2),[4],7.8
same,PRISMA enrichment of interactor (log2),[5],6.34
same,PRISMA enrichment of interactor (log2),[6],4.47
same,PRISMA enrichment of interactor (log2),[7],7.69
same,PRISMA enrichment of interactor (log2),[8],5.2
same,PRISMA enrichment of interactor (log2),[9],5.39
same,PRISMA enrichment of interactor (log2),[10],5.36
same,PRISMA enrichment of interactor (log2),[11],4.83
same,PRISMA enrichment of interactor (log2),[12],6.35
same,PRISMA enrichment of interactor (log2),[13],5.01
same,PRISMA enrichment of interactor (log2),[14],4.34
same,PRISMA enrichment of interactor (log2),[15],5.73
same,PRISMA enrichment of interactor (log2),[16],5.76
same,PRISMA enrichment of interactor (log2),[17],5.27
same,PRISMA enrichment of interactor (log2),[18],5.64
same,PRISMA enrichment of interactor (log2),[19],5.08
same,PRISMA enrichment of interactor (log2),[20],5.24
same,PRISMA enrichment of interactor (log2),[21],6.22
same,PRISMA enrichment of interactor (log2),[22],5.22
same,PRISMA enrichment of interactor (log2),[23],4.54
same,PRISMA enrichment of interactor (log2),[24],3.9
same,PRISMA enrichment of interactor (log2),[25],4.46
same,PRISMA enrichment of interactor (log2),[26],6.93
same,PRISMA enrichment of interactor (log2),[27],7.89
same,PRISMA enrichment of interactor (log2),[28],4.5
same,PRISMA enrichment of interactor (log2),[29],5.91
same,PRISMA enrichment of interactor (log2),[30],6.07
same,PRISMA enrichment of interactor (log2),[31],5.84
MAASSEIIIQVFVS [VPS8],PRISMA enrichment of interactor (log2),[32],5.13
same,PRISMA enrichment of interactor (log2),[33],4.73
same,PRISMA enrichment of interactor (log2),[34],5.96
same,PRISMA enrichment of interactor (log2),[35],6.02
same,PRISMA enrichment of interactor (log2),[36],6.73
same,PRISMA enrichment of interactor (log2),[37],5.8
same,PRISMA enrichment of interactor (log2),[38],8.06
same,PRISMA enrichment of interactor (log2),[39],4.76
same,PRISMA enrichment of interactor (log2),[29],6.41
same,PRISMA enrichment of interactor (log2),[40],4.94
same,PRISMA enrichment of interactor (log2),[41],3.98
same,PRISMA enrichment of interactor (log2),[42],4.24
same,PRISMA enrichment of interactor (log2),[43],4.4
same,PRISMA enrichment of interactor (log2),[31],5.8
same,PRISMA enrichment of interactor (log2),[44],5.01
same,PRISMA enrichment of interactor (log2),[45],4.44
same,PRISMA enrichment of interactor (log2),[46],6.4
same,PRISMA enrichment of interactor (log2),[47],4.47
same,PRISMA enrichment of interactor (log2),[48],4.95
same,PRISMA enrichment of interactor (log2),[49],5.72
same,PRISMA enrichment of interactor (log2),[50],6.88
same,PRISMA enrichment of interactor (log2),[51],4.02
same,PRISMA enrichment of interactor (log2),[52],8.75
MVTMFRY [RNF216P1],PRISMA enrichment of interactor (log2),[53],6.57
same,PRISMA enrichment of interactor (log2),[54],4.11

# Nothing new here: entries from further up.
binder,measurement,setting,value
MHVILTQWLLLTNR [PPARD],PRISMA enrichment of interactor (log2),[11],4.83
same,PRISMA enrichment of interactor (log2),[12],6.35
same,PRISMA enrichment of interactor (log2),[13],5.01
same,PRISMA enrichment of interactor (log2),[14],4.34
